{"source": "patent US9937166B2", "about": "(INFLAMMATORY RESPONSE RESEARCH, INC., priority 2013, dated 2018)", "origin": "cited, not measured here", "tested_on": "bacterial meningitis", "note": "At least one structure is not confirmed: it was looked up by name or label, or the drawing left a doubt."}
{"compound": "C[C@@H]1C[C@H]2[C@@H]3CCC4=CC(=O)C=C[C@]4(C)[C@@]3(F)[C@@H](O)C[C@]2(C)[C@@]1(O)C(=O)CO", "note": "[dexamethasone]", "values": [{"measurement": "Unfavorable outcomes, including death, compared to placebo", "setting": "adults", "value": "lower percentage of unfavorable outcomes"}, {"measurement": "Meningeal inflammation compared to placebo", "setting": "pediatric patients", "value": "reduction of meningeal inflammation"}]}
